This is an account of results in publication doi:10.1101/2020.01.08.898577.

Sequences of proteins named here, by UniProt entry; tags and fusion partners are left off.
UniProt Q15910: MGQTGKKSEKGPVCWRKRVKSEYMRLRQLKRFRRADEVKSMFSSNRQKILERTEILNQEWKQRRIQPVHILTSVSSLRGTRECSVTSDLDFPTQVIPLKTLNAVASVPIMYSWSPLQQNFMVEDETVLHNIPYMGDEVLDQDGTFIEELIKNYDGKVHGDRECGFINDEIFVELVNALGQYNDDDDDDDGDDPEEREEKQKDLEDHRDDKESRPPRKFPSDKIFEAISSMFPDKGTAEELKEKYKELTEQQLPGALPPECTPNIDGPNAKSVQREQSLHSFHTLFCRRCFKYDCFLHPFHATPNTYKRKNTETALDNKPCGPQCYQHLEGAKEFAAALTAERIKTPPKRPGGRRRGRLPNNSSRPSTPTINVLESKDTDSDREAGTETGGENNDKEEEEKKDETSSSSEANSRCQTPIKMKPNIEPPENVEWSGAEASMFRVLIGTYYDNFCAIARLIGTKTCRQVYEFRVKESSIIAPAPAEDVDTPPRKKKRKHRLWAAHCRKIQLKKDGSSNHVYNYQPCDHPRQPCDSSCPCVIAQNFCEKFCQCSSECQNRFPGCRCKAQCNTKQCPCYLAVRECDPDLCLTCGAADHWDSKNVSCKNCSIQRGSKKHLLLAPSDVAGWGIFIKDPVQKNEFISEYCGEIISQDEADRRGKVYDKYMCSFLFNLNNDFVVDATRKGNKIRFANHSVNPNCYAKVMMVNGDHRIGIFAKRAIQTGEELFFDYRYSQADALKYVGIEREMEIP
UniProt Q15022: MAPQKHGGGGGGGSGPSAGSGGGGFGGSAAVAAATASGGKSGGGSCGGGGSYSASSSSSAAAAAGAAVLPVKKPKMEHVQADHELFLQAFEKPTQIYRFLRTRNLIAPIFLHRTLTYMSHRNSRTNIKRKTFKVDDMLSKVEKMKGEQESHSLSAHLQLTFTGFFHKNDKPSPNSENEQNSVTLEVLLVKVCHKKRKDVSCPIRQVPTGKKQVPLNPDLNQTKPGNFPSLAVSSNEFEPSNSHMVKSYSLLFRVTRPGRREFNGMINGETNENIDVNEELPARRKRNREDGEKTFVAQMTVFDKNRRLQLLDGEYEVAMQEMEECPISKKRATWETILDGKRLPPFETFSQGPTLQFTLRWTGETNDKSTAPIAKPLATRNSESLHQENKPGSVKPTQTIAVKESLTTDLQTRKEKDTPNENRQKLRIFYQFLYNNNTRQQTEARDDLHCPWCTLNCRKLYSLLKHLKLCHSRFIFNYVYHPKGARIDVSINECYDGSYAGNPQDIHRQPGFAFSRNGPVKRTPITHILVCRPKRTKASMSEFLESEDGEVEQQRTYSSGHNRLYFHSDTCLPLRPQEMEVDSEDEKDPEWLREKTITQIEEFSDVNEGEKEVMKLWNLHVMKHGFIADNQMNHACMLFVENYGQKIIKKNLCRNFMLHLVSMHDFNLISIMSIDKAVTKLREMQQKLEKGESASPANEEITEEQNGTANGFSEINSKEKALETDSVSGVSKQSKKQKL
UniProt A6NHQ4: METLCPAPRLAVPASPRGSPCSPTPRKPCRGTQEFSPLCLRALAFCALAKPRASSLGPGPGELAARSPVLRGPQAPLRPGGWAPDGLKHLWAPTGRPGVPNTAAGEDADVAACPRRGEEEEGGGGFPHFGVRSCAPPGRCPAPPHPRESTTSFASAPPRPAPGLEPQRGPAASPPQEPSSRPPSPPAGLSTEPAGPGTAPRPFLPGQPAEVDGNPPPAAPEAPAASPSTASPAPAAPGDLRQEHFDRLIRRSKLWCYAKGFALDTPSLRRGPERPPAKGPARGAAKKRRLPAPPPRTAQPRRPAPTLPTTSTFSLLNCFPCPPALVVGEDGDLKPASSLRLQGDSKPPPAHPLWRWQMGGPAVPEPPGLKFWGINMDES
UniProt Q9Y483: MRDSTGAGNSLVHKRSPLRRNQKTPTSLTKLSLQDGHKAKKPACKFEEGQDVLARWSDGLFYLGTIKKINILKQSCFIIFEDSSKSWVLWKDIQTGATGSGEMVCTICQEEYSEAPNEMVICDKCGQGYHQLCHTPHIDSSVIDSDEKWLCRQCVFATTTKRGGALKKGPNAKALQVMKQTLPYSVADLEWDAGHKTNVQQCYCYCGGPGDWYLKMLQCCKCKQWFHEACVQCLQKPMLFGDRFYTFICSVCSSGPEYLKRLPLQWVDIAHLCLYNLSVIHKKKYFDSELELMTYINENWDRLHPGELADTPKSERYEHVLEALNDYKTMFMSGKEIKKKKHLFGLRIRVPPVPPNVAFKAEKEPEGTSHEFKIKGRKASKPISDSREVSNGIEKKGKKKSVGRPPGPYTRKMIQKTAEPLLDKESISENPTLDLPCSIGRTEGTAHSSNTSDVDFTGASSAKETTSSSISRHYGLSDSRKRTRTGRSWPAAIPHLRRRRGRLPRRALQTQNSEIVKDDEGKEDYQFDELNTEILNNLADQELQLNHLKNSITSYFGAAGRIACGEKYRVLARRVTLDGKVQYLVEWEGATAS

Results are given in words; binding and its absence hold for the method and conditions named. Binding seen in cells or lysates may run through a third protein. Some binding calls cover weakened binding; strength is not graded here.

Test [1] has as its target EZH2 (human (endogenous in MCF7)) (UniProt Q15910). Kind of test: co-IP.
For test [2], the target named is SUZ12 (human (endogenous in MCF7)) (UniProt Q15022). Kind of test: co-IP.

Take EPOP (from UniProt A6NHQ4 1-379): the binding entry in test [1] is on record as “binds”.
For PCL3 (from UniProt Q5T6S3 1-580), the binding result in test [1] was “binds”.
Turning to PCL2 (from UniProt Q9Y483 1-593), the binding entry in test [1] and in test [2] was “binds” each time.
